# Laboratory results published in patent US20030203372A1, “Analysis method” (priority 2000, published 2003).
# System: primary human macrophages
# Test: Research Genetics Human GeneFilters arrays, hypoxia versus normoxia in resting and activated macrophages
# Assay type: cell-based
# Details: Table 7, mRNA expression in hypoxia relative to normoxia
substance,measurement,setting,value
Vascular endothelial growth factor,RATIO Hypoxia/Normoxia (activated),activated macrophages,1.97
same,RATIO Hypoxia/Normoxia (resting),resting macrophages,1.53
